# Data published in PubChem BioAssay AID445 (National Center for Advancing Translational Sciences (NCATS), 2006).
# The other results are listed elsewhere or left out. These are further read-outs of the screen, such as a control signal, another cell line or another target. No call is given for them. Compounds called inactive in the main read-out are mostly missing here. Potencies come from curve fits of mixed quality, noted in brackets.
# Assay: IkB Signaling
# Settings: ABC-DLBCL IkBa-CBG/CBR dual luciferase ratio (green luciferase fused to IkBa over red control in OCI-Ly3 lymphoma cells), 4 h; measured here: control luc red channel unless noted
# How it was run: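 In this assay, an IκBα–CBG68 fusion accumulates when IKK-driven degradation is blocked; native CBR normalizes for cell number. OCI-Ly3 cells were treated 4 h with compound and doxycycline, then green and red light read after Chroma-Glo addition.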
row,SMILES,AC50
1,COc1ccc(-c2nc3c(c(SCC(=O)Nc4ccc(C(=O)O)cc4)n2)Cc2ccccc2O3)cc1,"15.8 µM [falling, partial curve]"
2,CCOC(=O)Cc1ccc(NC(=O)Nc2cccc(OCc3cc(=O)n4cc(C)ccc4n3)c2)cc1,"2.51 µM [falling, partial curve]"
3,O=C1c2[nH]nc(-c3ccccc3O)c2C(c2ccccc2)N1Cc1ccco1 (stereo not drawn),"25.1 µM [falling, partial curve]"
4,Cc1ccc(C(C(=O)NCc2ccco2)N(CCc2ccccc2)C(=O)Cn2nnc3ccccc32)o1 (stereo not drawn),"31.6 µM [falling, partial curve]"
5,CCc1c(C)sc2c1CCN(C(=O)Nc1cc(OC)c(OC)c(OC)c1)C2c1ccccc1 (stereo not drawn),"10 µM [falling, partial curve]"
6,COc1ccc(N(C(=O)/C=C\C(=O)Nc2ccc(Cl)cc2)C(C(=O)NCc2ccco2)c2ccc(C)cc2)cc1 (stereo not drawn),"25.1 µM [falling, partial curve]"
7,COc1ccc(NC(=O)CCS(=O)(=O)c2nc(-c3cccs3)cc(C(F)(F)F)n2)cc1OC,"3.98 µM [falling, partial curve]"
8,COc1ccccc1NC(=O)Cn1c(=O)n(Cc2ccc3c(c2)OCO3)c(=O)c2oc3ccccc3c21,"15.8 µM [falling, single point]"
9,Oc1ccc(N=Cc2ccc(-c3cccs3)s2)cc1,"5.01 µM [rising, full curve] [measured here: IkB-luc green channel]"
10,O=C(CNCCC1=CCCCC1)Nc1ccccc1N1CCCCC1,"25.1 µM [falling, partial curve]"
11,Cc1ccc(NC(=O)CN(c2ccccc2)S(=O)(=O)N(C)C)cc1Cl,"15.8 µM [falling, partial curve]"
12,Cc1cccc(C(=O)Nc2cccc(C(=O)OCc3cc(=O)n4ccsc4n3)c2)c1,"0.0398 µM [falling, full curve]"
13,CCOC(=O)c1ccc2ncc(C(=O)OCC)c(Nc3ccc(C)c(Br)c3)c2c1,"20 µM [falling, partial curve]"
14,CCC(C(=O)NCc1ccccc1)n1ncn2c(cc3occc32)c1=O (stereo not drawn),"15.8 µM [falling, single point]"
15,Cc1ccc(NC(=O)c2cc3c(=O)n(Cc4cccnc4)ccc3nc2C)cc1F,"3.98 µM [rising, partial curve]"
16,COc1ccc(Br)cc1CNC(=O)CN1C(=O)CSc2ccc(S(=O)(=O)N3CCOCC3)cc21,"39.8 µM [falling, single point]"
17,COc1ccc(OC(C)C(=O)NCc2nc(-c3ccc(Cl)cc3)no2)cc1 (stereo not drawn),"15.8 µM [falling, partial curve]"
18,NS(=O)(=O)c1cc2c(cc1Cl)NC=NS2(=O)=O,"15.8 µM [rising, partial curve] [measured here: IkB-luc green channel]"
19,COc1cc(OC)cc(C(=O)Nc2ccc(S(=O)(=O)Nc3onc(C)c3C)cc2)c1,"20 µM [falling, single point]"

row,SMILES,AC50
1,O=C(Cn1nc(C(F)(F)F)c2c1CCCC2)Nc1ccc(Cl)cc1,"25.1 µM [falling, single point]"
2,CCOC(=O)c1c(C)[nH]c(CCC(=O)Nc2cc(C)cc(C)c2)c1C,"15.8 µM [falling, partial curve]"
3,O=C(Cn1ccc2ccccc2c1=O)NCCC(=O)N1CCN(c2cccc(C(F)(F)F)c2)CC1,"25.1 µM [falling, partial curve]"
4,O=C(NCCc1ccccc1)c1ccc(CSc2nc3ccncc3n2Cc2ccccc2)cc1,"12.6 µM [falling, partial curve]"
5,CCCn1cc(S(=O)(=O)c2ccccc2)c(=O)c2cc(F)c(N3CCCC3)cc21,"1 µM [rising, full curve]"
6,COCc1c(C(=O)OCC(=O)N2c3ccccc3NC(=O)C2(C)C)oc2ccccc12,"31.6 µM [falling, single point]"
7,CCCn1ccc2c(OCC(=O)Nc3ccc(F)cc3F)cccc2c1=O,"39.8 µM [falling, single point]"
8,O=C(Cc1cccs1)N1CCCC(c2nc(-c3ccc(S(=O)(=O)N4CCCC4)cc3)no2)C1 (stereo not drawn),"39.8 µM [falling, single point]"
9,Cc1cccc(OCC(=O)Nc2ccc3c(c2)N(C)C(=O)c2ccccc2S3)c1,"10 µM [falling, partial curve]"
10,Cc1cccc(NC(=O)CSc2nc3c([nH]c4ccccc43)c(=O)n2-c2ccc(F)cc2)c1C,"6.31 µM [falling, full curve, poor fit]"
11,Cc1ccc(C(=O)N/C(=C\c2cn(S(=O)(=O)N(C)C)c3ccccc23)C(=O)NCCCn2ccnc2)cc1,"25.1 µM [falling, partial curve]"
12,CCn1cc(C(=O)NC(C)c2ccccc2)c(=O)c2cc(S(=O)(=O)N3CCc4ccccc4C3)ccc21 (stereo not drawn),"2.51 µM [falling, full curve]"
13,Cc1ccc(NC(=O)Cn2cc(S(=O)(=O)N3CCCC3)c(S(=O)(=O)N3CCCC3)c2)c(C)c1,"25.1 µM [falling, single point]"
14,Cc1occc1C(=O)N1CCN(c2ccc(Cl)c(Cl)c2)CC1,"15.8 µM [falling, partial curve]"
15,O=C(CN(C(=O)CNC(=O)c1ccco1)c1ccc(Cl)c(Cl)c1)NC1CCCCC1,"12.6 µM [falling, partial curve]"
16,O=C(NCCc1ccc(Cl)cc1)c1cccn1-c1nnc(N2CCCC2)s1,"20 µM [falling, partial curve, poor fit]"
17,COc1ccc(C(=O)c2cn(CC(=O)Nc3ccc4c(c3)OCO4)c3ccc(OC)cc3c2=O)cc1,"3.98 µM [falling, partial curve]"
18,CC(=O)N1c2ccccc2C(=O)C1N1CCN(c2cc(Cl)ccc2C)CC1 (stereo not drawn),"25.1 µM [falling, single point]"
19,CC(=O)c1ccc(N2CCN(S(=O)(=O)c3ccc4[nH]c5c(c4c3)CCCCC5)CC2)cc1,"5.01 µM [falling, partial curve]"

# Nothing new here: an excerpt of the list.
row,SMILES,AC50
16,O=C(NCCc1ccc(Cl)cc1)c1cccn1-c1nnc(N2CCCC2)s1,"20 µM [falling, partial curve, poor fit]"
17,COc1ccc(C(=O)c2cn(CC(=O)Nc3ccc4c(c3)OCO4)c3ccc(OC)cc3c2=O)cc1,"3.98 µM [falling, partial curve]"
